This is one part of the list. The calls rarely recur for the same compound in another form.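 Kinases were expressed as nanoluciferase fusions in K562 cells and luminescence was read every 4 h between 2 and 18 h as percent of control, DMSO set to 100% and a positive control to 0%. A time point counts as decreased when the signal drops significantly (2 sigma). The hit call is the authors' own, does not follow from the count of time points alone, and its rule is not shown.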
Tests used:
Conditions in all cases: K562; 2-18 h
STK38 = STK38 (UniProt Q15208); experiment: kinase-Nluc reporter destabilization hit call (1 = scored as downregulated) (binary); higher = compound decreases kinase abundance
SYK = SYK (UniProt P43405); experiment: as above
TEC = TEC (UniProt P42680); experiment: as above
TYK2 = TYK2 (UniProt P29597); experiment: as above
ULK3 = ULK3 (UniProt Q6PHR2); experiment: as above
YES1 = YES1 (UniProt P07947); experiment: as above
ZAK = ZAK (UniProt Q9NYL2); experiment: as above
ZAP70 = ZAP70 (UniProt P43403); experiment: as above
ABL1 = ABL1 (UniProt P00519); experiment: number of time points (of 5) at which kinase-Nluc abundance scored as decreased, DMSO-normalised (count); higher = more persistent destabilization
AKT1 = AKT1 (UniProt P31749); experiment: as above
ALK = ALK (UniProt Q9UM73); experiment: as above
ARAF = ARAF (UniProt P10398); experiment: as above
AURKA = AURKA (UniProt O14965); experiment: as above
AURKB = AURKB (UniProt Q96GD4); experiment: as above
AURKC = AURKC (UniProt Q9UQB9); experiment: as above
BLK = BLK (UniProt P51451); experiment: as above
BMX = BMX (UniProt P51813); experiment: as above
BRAF = BRAF (UniProt P15056); experiment: as above
BRAF_V600E = experiment: as above
BTK = BTK (UniProt Q06187); experiment: as above

Amino acid sequences for entries named in this document (tags omitted). A change or cut given only in a name is not applied to a line headed by its entry.
UniProt P29597: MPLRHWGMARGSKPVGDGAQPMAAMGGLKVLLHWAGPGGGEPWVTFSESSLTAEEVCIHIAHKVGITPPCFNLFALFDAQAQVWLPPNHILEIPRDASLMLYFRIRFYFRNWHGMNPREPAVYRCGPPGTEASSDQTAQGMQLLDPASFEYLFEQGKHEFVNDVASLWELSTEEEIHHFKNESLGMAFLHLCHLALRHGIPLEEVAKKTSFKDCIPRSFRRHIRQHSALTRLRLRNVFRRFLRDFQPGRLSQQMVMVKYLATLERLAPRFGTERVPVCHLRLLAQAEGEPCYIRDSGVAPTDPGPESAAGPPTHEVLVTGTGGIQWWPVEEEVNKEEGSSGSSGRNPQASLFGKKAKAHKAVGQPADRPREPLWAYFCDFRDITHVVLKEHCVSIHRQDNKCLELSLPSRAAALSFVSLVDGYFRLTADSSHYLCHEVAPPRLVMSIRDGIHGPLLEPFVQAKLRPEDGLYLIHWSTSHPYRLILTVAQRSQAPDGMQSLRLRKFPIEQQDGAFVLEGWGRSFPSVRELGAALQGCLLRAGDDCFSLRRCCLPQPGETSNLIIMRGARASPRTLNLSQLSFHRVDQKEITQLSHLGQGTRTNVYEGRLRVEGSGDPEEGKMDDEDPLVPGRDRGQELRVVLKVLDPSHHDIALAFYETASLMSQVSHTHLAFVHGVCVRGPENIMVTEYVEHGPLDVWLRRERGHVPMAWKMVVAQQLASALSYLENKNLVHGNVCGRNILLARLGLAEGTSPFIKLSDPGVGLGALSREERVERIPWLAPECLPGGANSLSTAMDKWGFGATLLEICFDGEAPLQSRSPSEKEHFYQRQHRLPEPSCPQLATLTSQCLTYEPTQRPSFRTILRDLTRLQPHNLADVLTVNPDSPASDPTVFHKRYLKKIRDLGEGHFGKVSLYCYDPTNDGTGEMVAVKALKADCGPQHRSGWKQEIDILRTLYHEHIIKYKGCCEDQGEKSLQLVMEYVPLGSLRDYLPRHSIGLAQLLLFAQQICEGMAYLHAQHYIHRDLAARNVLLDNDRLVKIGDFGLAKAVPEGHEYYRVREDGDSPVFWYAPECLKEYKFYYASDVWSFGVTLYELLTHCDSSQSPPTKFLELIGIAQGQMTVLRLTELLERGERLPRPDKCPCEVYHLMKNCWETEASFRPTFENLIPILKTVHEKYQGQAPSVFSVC
UniProt P07947, whole entry, looked up: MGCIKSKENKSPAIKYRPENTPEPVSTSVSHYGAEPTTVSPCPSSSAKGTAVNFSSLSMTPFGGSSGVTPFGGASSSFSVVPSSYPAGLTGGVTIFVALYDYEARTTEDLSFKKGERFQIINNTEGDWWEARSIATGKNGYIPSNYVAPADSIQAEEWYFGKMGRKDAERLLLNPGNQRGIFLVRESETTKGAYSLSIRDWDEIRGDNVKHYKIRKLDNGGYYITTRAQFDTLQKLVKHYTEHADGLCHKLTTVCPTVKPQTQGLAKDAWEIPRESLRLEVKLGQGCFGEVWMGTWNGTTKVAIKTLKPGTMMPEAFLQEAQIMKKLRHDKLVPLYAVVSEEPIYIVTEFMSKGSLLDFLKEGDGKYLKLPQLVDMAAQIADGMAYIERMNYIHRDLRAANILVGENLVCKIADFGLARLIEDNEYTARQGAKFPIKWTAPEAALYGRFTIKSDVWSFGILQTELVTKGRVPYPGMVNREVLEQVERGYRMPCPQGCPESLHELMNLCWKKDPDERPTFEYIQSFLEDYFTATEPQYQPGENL
UniProt P43403: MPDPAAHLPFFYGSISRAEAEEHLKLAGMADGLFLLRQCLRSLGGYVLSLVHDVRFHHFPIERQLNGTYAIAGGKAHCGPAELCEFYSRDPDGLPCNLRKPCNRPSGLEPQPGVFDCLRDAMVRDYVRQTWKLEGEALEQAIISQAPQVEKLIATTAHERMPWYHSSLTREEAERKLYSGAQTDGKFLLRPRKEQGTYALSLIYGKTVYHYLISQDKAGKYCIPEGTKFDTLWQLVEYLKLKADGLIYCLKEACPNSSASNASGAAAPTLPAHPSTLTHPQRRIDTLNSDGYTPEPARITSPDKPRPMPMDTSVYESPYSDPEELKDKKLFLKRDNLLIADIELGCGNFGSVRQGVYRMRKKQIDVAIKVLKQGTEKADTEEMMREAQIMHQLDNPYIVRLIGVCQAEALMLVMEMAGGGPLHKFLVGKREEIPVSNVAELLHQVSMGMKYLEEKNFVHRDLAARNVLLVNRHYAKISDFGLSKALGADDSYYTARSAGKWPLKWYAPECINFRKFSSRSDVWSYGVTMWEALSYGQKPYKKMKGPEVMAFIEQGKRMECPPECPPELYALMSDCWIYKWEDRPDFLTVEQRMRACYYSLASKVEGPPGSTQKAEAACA
UniProt P00519, whole entry: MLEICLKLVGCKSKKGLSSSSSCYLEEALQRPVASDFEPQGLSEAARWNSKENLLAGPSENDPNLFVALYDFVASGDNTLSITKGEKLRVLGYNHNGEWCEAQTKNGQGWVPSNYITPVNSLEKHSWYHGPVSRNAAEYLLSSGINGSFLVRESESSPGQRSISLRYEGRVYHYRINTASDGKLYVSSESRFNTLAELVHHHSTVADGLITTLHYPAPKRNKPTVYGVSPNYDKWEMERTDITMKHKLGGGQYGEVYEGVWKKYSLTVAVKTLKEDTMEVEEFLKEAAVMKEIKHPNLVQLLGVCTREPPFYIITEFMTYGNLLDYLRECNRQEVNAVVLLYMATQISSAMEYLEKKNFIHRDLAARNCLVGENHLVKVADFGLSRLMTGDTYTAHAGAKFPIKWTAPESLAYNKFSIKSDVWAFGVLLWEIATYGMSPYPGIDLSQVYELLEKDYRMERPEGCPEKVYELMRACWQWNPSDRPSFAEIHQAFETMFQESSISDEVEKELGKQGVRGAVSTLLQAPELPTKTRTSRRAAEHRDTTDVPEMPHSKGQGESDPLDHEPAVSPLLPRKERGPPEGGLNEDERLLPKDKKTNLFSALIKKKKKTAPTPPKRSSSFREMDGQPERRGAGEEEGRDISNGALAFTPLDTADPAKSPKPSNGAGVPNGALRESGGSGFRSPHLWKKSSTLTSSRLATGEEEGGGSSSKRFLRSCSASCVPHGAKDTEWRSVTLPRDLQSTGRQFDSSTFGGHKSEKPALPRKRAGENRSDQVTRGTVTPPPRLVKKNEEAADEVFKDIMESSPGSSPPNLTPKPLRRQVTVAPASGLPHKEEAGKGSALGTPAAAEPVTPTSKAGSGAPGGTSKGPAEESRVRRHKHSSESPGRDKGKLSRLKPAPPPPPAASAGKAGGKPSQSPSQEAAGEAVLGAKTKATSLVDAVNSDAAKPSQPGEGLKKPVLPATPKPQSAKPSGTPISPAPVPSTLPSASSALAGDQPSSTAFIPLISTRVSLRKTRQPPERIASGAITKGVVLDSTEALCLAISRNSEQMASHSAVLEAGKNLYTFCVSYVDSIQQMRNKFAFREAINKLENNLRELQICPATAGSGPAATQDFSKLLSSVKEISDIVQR
UniProt P31749: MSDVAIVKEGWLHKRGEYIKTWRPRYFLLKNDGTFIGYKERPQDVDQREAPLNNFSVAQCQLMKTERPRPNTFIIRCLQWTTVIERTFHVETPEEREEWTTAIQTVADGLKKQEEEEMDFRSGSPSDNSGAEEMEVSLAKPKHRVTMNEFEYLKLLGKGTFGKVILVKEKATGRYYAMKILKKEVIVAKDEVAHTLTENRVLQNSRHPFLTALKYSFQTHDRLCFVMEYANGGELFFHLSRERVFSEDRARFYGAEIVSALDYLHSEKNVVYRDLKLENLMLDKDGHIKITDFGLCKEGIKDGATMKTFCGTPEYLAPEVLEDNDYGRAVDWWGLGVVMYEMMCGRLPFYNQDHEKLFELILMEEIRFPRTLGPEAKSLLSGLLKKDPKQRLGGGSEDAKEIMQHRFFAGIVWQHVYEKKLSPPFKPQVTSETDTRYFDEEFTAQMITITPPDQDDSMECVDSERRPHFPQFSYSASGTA
UniProt O14965: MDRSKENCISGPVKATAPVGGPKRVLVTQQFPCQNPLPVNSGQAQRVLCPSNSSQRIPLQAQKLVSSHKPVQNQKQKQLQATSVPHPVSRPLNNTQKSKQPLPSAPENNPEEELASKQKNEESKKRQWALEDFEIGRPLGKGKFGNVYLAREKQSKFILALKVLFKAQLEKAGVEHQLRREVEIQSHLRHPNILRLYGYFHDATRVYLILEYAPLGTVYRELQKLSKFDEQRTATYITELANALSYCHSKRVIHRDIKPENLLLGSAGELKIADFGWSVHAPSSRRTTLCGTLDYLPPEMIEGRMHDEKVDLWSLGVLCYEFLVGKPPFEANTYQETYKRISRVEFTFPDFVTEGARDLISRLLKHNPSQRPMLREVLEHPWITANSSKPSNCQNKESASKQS
UniProt Q96GD4, whole entry: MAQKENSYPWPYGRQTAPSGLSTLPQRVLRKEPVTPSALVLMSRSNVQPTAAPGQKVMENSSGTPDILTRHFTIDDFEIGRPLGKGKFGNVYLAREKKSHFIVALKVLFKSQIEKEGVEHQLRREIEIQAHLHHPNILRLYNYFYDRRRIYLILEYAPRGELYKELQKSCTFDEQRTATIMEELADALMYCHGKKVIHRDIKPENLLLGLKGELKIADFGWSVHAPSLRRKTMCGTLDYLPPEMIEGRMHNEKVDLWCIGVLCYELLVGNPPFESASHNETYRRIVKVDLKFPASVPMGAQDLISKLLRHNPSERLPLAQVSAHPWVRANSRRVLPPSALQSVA
UniProt Q9UQB9: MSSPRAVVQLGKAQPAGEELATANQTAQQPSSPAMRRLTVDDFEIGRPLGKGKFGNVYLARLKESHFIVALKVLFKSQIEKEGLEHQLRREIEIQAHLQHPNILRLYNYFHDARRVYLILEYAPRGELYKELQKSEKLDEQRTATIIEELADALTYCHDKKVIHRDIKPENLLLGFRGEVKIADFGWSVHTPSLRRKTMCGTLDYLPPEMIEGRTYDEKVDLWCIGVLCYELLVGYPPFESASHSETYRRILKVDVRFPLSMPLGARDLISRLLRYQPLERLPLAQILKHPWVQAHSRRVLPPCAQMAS
UniProt P15056, whole entry, looked up: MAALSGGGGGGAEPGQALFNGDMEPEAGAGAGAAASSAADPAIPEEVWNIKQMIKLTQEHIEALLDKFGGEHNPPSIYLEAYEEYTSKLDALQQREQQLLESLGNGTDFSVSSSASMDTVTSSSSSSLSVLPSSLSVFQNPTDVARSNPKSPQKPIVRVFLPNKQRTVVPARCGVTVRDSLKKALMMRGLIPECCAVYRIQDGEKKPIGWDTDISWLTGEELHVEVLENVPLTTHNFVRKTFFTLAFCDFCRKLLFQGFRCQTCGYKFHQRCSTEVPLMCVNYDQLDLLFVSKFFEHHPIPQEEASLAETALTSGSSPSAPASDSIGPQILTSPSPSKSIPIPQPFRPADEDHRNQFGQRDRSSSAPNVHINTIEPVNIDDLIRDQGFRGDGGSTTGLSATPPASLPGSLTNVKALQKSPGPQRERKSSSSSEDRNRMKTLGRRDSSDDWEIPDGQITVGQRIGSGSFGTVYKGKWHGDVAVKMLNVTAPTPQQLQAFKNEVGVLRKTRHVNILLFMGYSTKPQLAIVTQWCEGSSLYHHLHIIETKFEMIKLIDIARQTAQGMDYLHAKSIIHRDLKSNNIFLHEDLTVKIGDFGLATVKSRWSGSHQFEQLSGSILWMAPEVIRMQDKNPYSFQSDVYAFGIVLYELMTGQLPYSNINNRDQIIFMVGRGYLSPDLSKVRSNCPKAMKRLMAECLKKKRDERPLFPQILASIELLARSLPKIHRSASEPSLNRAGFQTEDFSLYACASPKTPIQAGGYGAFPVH
UniProt Q06187: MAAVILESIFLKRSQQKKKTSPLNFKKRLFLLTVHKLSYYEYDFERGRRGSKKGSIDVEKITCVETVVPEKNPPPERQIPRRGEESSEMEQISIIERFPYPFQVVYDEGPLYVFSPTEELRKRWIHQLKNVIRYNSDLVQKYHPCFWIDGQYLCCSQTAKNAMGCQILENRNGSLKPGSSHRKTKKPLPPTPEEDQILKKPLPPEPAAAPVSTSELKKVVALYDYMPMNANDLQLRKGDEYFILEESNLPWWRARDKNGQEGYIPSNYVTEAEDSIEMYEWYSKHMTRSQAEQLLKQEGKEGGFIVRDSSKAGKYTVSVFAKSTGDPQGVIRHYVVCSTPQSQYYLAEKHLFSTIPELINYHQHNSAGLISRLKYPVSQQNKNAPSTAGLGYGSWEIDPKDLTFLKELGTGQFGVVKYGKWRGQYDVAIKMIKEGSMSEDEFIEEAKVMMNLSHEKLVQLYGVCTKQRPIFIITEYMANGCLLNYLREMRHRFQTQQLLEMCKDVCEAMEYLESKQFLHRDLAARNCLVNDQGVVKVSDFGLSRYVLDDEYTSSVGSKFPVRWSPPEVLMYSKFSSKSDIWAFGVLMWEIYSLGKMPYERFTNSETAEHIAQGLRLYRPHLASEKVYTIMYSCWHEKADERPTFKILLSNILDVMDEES

Compound	kinase-Nluc reporter destabilization hit call (STK38)	kinase-Nluc reporter destabilization hit call (SYK)	kinase-Nluc reporter destabilization hit call (TEC)	kinase-Nluc reporter destabilization hit call (TYK2)	kinase-Nluc reporter destabilization hit call (ULK3)	kinase-Nluc reporter destabilization hit call (YES1)	kinase-Nluc reporter destabilization hit call (ZAK)	kinase-Nluc reporter destabilization hit call (ZAP70)	number of time points (ABL1)	number of time points (AKT1)	number of time points (ALK)	number of time points (ARAF)	number of time points (AURKA)	number of time points (AURKB)	number of time points (AURKC)	number of time points (BLK)	number of time points (BMX)	number of time points (BRAF)	number of time points (BRAF_V600E)	number of time points (BTK)
CCc1ccc(OCC(=O)Nc2ccc(F)c([N+](=O)[O-])c2)cc1 (10 µM)	inactive: 0	inactive: 0	inactive: 0	inactive: 0	inactive: 0	inactive: 0	inactive: 0	inactive: 0	0	0	0	0	0	0	0	0	0	0	0	0
Cn1cc(C2=C(c3cccc(N)c3)C(=O)NC2=O)c2ccccc21 (10 µM)	inactive: 0	inactive: 0	inactive: 0	inactive: 0	inactive: 0	inactive: 0	inactive: 0	inactive: 0	0	0	0	0	0	0	0	0	0	0	0	0
Cc1ncc(NC(=O)NC2c3ccccc3-c3ccccc32)c(-c2ccccc2)n1 (10 µM)	inactive: 0	inactive: 0	inactive: 0	inactive: 0	inactive: 0	inactive: 0	inactive: 0	inactive: 0	0	0	0	0	0	0	0	0	0	0	0	0
COc1ccc(S(=O)(=O)NCc2ccc(C(=O)NCCc3ccc(Cl)cn3)cc2)cc1 (10 µM)	inactive: 0	inactive: 0	inactive: 0	inactive: 0	inactive: 0	inactive: 0	inactive: 0	inactive: 0	0	0	0	0	0	0	0	0	0	0	0	0
Cc1ccc(-c2csc3ncnc(SCCC(=O)O)c23)cc1 (10 µM)	inactive: 0	inactive: 0	inactive: 0	inactive: 0	inactive: 0	inactive: 0	inactive: 0	inactive: 0	0	0	0	0	0	0	0	0	0	0	0	0
c1cc(NC2CCNCC2)nc(-c2cnc3ccccn23)c1 [IRAK inhibitor 1] (10 µM)	inactive: 0	inactive: 0	inactive: 0	inactive: 0	inactive: 0	inactive: 0	inactive: 0	inactive: 0	0	0	0	0	0	0	0	0	0	0	0	0
Cn1cc(C2=C(c3cn(CCCSC(=N)N)c4ccccc34)C(=O)NC2=O)c2ccccc21 [Ro 31-8220 (mesylate)] (2.5 µM)	inactive: 0	inactive: 0	inactive: 0	inactive: 0	inactive: 0	inactive: 0	inactive: 0	inactive: 0	0	0	0	0	3	0	0	2	0	0	2	0
COc1ncccc1-c1cnn2ccc(N3CCN(C(=O)OC(C)C)CC3)nc12 (10 µM)	inactive: 0	inactive: 0	inactive: 0	inactive: 0	inactive: 0	inactive: 0	inactive: 0	inactive: 0	0	0	0	0	0	0	0	0	0	0	0	0
Nc1nccc(Oc2ccc(NC(=O)c3c[nH]cc(-c4ccc(F)cc4)c3=O)cc2F)c1Cl (10 µM)	inactive: 0	inactive: 0	inactive: 0	inactive: 0	active: 1	inactive: 0	inactive: 0	inactive: 0	4	0	3	0	4	4	0	4	0	2	0	0
C[C@H](Nc1ncnc2nc[nH]c12)c1cc2cccc(Cl)c2c(=O)n1-c1ccccc1 [Duvelisib] (10 µM)	inactive: 0	inactive: 0	inactive: 0	inactive: 0	inactive: 0	inactive: 0	inactive: 0	inactive: 0	2	0	0	0	0	0	0	0	0	0	0	0
Nc1cccc(-c2cc3c(Oc4cccc(O)c4)ncnc3[nH]2)c1 (10 µM)	inactive: 0	inactive: 0	inactive: 0	inactive: 0	inactive: 0	inactive: 0	inactive: 0	inactive: 0	3	0	2	0	0	0	0	0	1	1	3	0

Taken from above.
number of time points (AURKC) with Nc1cccc(-c2cc3c(Oc4cccc(O)c4)ncnc3[nH]2)c1 (10 µM) reads 0
number of time points (AURKB) with Cc1ncc(NC(=O)NC2c3ccccc3-c3ccccc32)c(-c2ccccc2)n1 (10 µM) reads 0

Source: the supplement of paper PMC12823440, “Inhibitors supercharge kinase turnover through native proteolytic circuits” (Nature, 2025)
